Results as given in the supplement of paper PMC10849652.
Some of the results follow.

The chains behind the UniProt entries cited, without tags or fusion partners. Where a name states a change or a piece, a line headed by the entry shows the natural chain unless it says otherwise.
UniProt Q9BXW9: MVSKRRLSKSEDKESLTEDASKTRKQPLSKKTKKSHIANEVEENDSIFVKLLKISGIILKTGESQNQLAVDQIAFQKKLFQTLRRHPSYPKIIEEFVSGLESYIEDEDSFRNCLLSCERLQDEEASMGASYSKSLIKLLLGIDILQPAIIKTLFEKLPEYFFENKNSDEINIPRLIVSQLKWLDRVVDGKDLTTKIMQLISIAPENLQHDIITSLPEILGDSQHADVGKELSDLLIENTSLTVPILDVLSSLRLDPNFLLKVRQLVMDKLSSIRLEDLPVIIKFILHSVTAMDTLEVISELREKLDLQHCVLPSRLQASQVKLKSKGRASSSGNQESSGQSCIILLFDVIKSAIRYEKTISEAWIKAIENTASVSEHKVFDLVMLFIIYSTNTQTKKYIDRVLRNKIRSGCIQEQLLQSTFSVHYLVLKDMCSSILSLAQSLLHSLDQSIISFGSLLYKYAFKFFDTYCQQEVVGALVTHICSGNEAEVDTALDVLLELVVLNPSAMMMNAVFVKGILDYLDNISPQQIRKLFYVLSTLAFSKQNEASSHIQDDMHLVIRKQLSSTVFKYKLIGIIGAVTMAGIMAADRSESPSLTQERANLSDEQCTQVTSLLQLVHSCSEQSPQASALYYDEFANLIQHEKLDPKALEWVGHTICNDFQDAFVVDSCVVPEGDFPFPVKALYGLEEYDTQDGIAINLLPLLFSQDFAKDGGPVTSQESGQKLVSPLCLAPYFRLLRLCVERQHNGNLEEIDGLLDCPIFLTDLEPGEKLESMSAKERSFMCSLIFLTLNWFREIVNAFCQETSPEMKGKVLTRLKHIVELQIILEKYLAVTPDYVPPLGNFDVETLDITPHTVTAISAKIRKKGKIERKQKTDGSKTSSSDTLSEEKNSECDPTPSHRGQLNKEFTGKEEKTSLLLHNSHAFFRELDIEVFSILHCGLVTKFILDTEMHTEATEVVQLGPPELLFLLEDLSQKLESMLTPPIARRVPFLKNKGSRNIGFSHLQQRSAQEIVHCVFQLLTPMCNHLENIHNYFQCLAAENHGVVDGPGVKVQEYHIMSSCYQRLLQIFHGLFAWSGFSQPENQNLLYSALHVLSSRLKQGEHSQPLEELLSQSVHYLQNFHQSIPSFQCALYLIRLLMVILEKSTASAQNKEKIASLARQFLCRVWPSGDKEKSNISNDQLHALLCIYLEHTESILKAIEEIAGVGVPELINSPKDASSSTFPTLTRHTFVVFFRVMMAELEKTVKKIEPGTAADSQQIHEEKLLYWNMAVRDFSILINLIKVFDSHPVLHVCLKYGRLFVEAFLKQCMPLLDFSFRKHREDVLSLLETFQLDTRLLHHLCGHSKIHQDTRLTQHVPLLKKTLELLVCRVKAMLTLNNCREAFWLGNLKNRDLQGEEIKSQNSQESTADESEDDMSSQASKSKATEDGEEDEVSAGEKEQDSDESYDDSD
UniProt P22087: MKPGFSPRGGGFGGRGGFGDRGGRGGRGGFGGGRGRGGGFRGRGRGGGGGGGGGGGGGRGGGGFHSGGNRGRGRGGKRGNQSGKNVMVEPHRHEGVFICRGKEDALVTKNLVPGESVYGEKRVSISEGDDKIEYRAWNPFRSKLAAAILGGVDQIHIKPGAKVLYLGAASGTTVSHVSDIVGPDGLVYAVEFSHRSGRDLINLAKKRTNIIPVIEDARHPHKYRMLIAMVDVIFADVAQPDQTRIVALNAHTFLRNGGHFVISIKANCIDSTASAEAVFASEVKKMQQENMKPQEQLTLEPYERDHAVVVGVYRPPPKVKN
UniProt Q5JUQ0: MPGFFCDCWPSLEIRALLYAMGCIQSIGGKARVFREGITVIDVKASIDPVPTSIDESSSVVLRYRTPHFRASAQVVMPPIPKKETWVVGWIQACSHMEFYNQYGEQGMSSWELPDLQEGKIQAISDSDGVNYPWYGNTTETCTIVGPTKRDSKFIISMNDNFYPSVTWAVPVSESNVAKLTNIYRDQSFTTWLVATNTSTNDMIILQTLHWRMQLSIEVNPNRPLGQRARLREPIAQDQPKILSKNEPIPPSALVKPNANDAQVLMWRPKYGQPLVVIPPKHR
UniProt Q13045: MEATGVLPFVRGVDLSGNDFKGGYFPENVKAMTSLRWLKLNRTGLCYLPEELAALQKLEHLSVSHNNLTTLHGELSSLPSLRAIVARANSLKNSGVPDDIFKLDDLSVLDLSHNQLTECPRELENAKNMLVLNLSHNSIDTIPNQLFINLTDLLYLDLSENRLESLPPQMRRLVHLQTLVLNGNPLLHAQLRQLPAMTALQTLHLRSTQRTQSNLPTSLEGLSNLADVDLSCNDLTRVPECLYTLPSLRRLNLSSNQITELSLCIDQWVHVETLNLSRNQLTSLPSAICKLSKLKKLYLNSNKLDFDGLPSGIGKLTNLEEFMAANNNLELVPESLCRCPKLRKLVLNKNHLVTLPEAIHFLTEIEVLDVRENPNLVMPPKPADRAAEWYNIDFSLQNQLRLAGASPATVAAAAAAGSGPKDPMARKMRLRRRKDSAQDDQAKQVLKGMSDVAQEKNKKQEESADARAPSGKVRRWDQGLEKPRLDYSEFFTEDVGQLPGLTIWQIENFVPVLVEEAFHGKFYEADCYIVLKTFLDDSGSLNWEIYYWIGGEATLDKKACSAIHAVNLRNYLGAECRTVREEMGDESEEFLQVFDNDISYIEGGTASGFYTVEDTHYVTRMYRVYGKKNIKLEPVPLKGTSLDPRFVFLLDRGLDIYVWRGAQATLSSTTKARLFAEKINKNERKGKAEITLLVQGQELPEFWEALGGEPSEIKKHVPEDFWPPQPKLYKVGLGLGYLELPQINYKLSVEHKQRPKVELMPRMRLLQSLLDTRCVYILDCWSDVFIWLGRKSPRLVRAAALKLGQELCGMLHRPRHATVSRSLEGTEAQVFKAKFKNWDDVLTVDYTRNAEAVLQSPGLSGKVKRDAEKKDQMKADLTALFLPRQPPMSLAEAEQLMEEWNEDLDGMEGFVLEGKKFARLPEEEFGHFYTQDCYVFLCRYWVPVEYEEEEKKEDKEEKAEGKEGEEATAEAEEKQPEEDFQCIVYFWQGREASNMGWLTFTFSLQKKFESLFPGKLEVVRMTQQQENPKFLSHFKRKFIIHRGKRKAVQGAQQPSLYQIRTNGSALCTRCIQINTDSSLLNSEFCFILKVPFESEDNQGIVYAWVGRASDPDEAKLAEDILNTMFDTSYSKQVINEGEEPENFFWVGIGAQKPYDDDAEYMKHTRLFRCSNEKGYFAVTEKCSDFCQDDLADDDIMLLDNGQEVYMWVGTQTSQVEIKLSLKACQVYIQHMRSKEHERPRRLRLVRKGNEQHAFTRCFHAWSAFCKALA
UniProt Q5T0N5: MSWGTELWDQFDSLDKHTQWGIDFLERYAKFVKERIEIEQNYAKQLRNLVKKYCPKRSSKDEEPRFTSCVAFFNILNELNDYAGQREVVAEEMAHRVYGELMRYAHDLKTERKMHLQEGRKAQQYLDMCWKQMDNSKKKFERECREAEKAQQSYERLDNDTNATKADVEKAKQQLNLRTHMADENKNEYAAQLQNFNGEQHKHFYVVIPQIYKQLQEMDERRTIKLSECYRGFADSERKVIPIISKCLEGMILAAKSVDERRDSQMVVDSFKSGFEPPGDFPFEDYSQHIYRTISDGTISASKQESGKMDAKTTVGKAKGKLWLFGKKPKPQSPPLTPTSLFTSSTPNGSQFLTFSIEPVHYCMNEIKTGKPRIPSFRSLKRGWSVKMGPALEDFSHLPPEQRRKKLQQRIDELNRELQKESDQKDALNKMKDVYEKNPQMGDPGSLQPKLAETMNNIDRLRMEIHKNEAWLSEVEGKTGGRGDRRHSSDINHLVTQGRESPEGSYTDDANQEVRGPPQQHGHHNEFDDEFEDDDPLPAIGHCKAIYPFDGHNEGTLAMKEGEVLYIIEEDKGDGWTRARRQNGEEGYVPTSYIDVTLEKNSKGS
UniProt A2RU67: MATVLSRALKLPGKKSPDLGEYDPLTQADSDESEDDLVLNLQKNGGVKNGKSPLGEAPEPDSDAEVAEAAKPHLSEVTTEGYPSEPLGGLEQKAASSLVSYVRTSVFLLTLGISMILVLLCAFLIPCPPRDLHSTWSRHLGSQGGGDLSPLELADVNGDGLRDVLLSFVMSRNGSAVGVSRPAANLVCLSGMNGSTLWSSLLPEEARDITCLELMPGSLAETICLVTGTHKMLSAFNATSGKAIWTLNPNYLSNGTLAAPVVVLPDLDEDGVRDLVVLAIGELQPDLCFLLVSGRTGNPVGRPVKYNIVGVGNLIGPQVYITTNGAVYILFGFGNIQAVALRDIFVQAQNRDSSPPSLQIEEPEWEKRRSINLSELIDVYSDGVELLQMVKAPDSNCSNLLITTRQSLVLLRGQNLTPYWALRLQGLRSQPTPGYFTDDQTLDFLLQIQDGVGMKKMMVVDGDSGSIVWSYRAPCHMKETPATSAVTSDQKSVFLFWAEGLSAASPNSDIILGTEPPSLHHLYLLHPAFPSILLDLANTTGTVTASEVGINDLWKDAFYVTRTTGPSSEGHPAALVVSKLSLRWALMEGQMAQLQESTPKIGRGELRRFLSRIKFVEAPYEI
UniProt Q92520: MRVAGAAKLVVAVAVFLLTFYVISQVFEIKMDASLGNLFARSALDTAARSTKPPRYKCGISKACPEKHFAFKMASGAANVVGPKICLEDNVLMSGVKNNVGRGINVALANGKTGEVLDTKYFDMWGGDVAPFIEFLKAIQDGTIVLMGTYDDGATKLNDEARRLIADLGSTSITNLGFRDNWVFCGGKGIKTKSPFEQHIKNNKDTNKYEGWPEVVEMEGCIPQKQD
UniProt Q9UIM3: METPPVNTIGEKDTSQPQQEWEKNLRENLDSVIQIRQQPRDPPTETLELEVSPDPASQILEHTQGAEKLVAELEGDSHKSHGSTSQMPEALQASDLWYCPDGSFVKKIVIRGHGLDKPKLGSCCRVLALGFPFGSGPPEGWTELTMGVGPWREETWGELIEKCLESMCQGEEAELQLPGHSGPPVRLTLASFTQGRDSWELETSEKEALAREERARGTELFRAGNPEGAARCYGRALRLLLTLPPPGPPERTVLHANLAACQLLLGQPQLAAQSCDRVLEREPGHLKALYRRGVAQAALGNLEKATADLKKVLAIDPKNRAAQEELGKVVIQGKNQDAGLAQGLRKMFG
UniProt Q96IV6: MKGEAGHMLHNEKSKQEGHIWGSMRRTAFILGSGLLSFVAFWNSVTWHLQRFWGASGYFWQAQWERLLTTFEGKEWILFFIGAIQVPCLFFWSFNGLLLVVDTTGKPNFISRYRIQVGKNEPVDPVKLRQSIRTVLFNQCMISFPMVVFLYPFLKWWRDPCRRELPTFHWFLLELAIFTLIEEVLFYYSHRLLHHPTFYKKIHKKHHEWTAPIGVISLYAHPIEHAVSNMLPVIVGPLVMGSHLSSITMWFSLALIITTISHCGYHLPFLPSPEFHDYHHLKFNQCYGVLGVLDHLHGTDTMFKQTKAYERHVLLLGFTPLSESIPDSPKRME
UniProt Q7Z6M2: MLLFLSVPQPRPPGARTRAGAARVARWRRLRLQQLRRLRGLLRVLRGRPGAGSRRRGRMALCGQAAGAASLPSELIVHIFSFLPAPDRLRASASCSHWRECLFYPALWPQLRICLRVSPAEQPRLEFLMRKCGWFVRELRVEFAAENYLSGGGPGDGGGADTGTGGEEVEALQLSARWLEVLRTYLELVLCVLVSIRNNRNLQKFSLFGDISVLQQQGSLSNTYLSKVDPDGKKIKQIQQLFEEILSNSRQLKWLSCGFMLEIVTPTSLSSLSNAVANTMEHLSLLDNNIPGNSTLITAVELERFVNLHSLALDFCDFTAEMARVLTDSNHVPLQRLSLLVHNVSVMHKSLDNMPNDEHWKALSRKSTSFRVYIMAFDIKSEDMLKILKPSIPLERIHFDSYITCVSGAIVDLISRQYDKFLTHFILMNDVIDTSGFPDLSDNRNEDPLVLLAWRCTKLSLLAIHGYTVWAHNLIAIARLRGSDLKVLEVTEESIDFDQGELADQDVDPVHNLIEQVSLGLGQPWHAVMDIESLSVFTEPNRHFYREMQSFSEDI
UniProt Q9Y3D6: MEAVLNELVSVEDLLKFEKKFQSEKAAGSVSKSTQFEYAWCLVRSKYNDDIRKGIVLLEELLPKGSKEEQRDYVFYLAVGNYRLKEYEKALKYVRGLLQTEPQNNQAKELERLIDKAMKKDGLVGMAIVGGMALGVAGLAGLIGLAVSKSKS
UniProt P31995: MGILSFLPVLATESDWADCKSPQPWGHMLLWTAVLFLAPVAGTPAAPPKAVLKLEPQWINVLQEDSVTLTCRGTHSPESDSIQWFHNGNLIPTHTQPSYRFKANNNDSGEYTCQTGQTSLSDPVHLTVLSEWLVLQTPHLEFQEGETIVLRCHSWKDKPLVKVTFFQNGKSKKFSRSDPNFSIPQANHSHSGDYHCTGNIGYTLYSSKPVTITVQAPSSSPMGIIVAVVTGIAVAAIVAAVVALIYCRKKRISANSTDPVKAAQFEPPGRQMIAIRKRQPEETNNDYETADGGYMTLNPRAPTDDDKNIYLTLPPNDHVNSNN

Experiments:
Test in all cases: log2 fold change, soluble protein after heating vs DMSO (PISA); higher = thermal stabilisation; K562 cells, 10 uM, 30 min; active = over 0.2 and 3.5 SD of the protein, either way, in both replicates (recomputed)
[1] = compound: C1=CC=C(C=C1)[C@H](COC2=CC3=C(C=C2)NC(=O)N3)NC(=O)C4=CC=CN(C4=O)CC5=CC(=C(C=C5)F)F
Method in brief: (§1)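 K562 cells at 2×10^6 cells/mL were exposed to 10 μM compound for 30 min, then aliquots were heated for 3 min across 48°C-58°C, pooled, and extracted in PBS containing 0.5% NP-40 at 4°C. The supernatant after 21,000xg for 90 min was taken as soluble protein and measured by TMTpro 16plex LC-MS/MS with channel sums equalised. Thermal stability is reported relative to control samples, with values from duplicates. Fold changes are given on a log2 scale.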

[2] = compound: CC1=C(SC2=C1C(=N[C@H](C3=NN=C(N32)C)CC(=O)N)C4=CC=C(C=C4)Cl)C
Method in brief: as §1

[3] = compound: CC1=C2C(=CC=C1)N=C(N(C2=O)C3=CC=CC=C3C)CN4C=NC5=C(N=CN=C54)N
Method in brief: as §1

[4] = compound: Cc1sc2c(c1C)C(c1ccc(Cl)cc1)=N[C@@H](CC(=O)OC(C)(C)C)c1nnc(C)n1-2
Method in brief: as §1

[5] = compound: c1ccc([C@@H]2C[C@H]2NC2CCNCC2)cc1
Method in brief: as §1

Measured: log2 fold change

FAM89A (UniProt Q96GI7)
inactive: [1] 0.241

FASN (UniProt P49327)
inactive: [1] -0.051 | [2] 0.063 | [3] 0.026 | [4] -0.021 | [5] -0.037

FANCD2 isoform 1 (UniProt Q9BXW9)
inactive: [1] -0.018 | [2] 0.068 | [3] 0.159 | [4] -0.041 | [5] -0.009

FBL (UniProt P22087)
inactive: [1] 0.095 | [2] -0.267 | [3] -0.126 | [4] 0.18 | [5] 0.074

FAR1 (UniProt Q8WVX9)
inactive: [1] -0.002 | [2] 0.068 | [3] 0.104 | [4] -0.035 | [5] -0.011

FAM78A (UniProt Q5JUQ0)
inactive: [1] 0.019 | [2] 0.068 | [3] 0.061 | [4] 0.018 | [5] -0.047

FLII (UniProt Q13045)
inactive: [1] -0.013 | [2] -0.005 | [3] 0.052 | [4] 0.034 | [5] -0.022

FNBP1L (UniProt Q5T0N5)
inactive: [1] 0.003 | [2] 0.039 | [3] -0.034 | [4] 0 | [5] -0.029

FAM20B (UniProt O75063)
inactive: [1] 0.056 | [2] 0.048 | [3] 0.058 | [4] -0.007 | [5] -0.024

FLOT1 (UniProt O75955)
inactive: [1] 0.064 | [2] -0.219 | [3] 0.045 | [4] -0.167 | [5] -0.137

FMC1 (UniProt Q96HJ9)
inactive: [1] 0.009 | [2] 0.06 | [3] 0.044 | [4] 0 | [5] -0.002

FMNL1 isoform 3 (UniProt O95466)
inactive: [1] -0.267

FAM76B (UniProt Q5HYJ3)
inactive: [1] 0.058 | [2] 0.071 | [3] 0.241 | [4] 0.004 | [5] -0.039

FAM234B (UniProt A2RU67)
inactive: [1] 0.125 | [2] 0.084 | [3] -0.083 | [4] -0.172 | [5] 0.168

FAM3C (UniProt Q92520)
inactive: [1] 0.002 | [2] 0.033 | [3] 0.002 | [4] 0.055 | [5] -0.019

FITM2 (UniProt Q8N6M3)
inactive: [1] 0.12

FDPS (UniProt P14324)
inactive: [1] -0.328 | [2] 0.063 | [3] 0.143 | [4] 0.001 | [5] -0.121

FKBPL (UniProt Q9UIM3)
inactive: [1] -0.025 | [2] 0.031 | [3] 0.054 | [4] -0.016 | [5] 0.028

FBXO6 (UniProt Q9NRD1)
inactive: [1] 0.013 | [2] 0.087 | [3] 0.041 | [4] -0.041 | [5] -0.032

FAXDC2 (UniProt Q96IV6)
inactive: [1] -0.049

Fetched one by one from the list above (2):
FNBP1L (UniProt Q5T0N5)
inactive: [1] 0.003 | [2] 0.039 | [3] -0.034 | [4] 0 | [5] -0.029

FANCD2 isoform 1 (UniProt Q9BXW9)
inactive: [1] -0.018 | [2] 0.068 | [3] 0.159 | [4] -0.041 | [5] -0.009

Additional results:

FLOT2 (UniProt Q14254)
inactive: [1] 0.047 | [2] -0.128 | [3] -0.028 | [4] -0.038 | [5] -0.079

FBXO33 (UniProt Q7Z6M2)
inactive: [1] -0.12

FBLN1 (UniProt P23142)
inactive: [1] -0.069 | [2] -0.026 | [3] 0.045 | [4] -0.021 | [5] 0.128

FIS1 (UniProt Q9Y3D6)
inactive: [1] 0.047 | [2] 0.021 | [3] 0.035 | [4] -0.081 | [5] -0.011

FKBP7 (UniProt Q9Y680)
inactive: [1] -0.027 | [2] 0.005 | [3] 0.091 | [4] 0.009 | [5] 0.102

FAM241A (UniProt Q8N8J7)
inactive: [1] -0.046 | [2] 0.034 | [3] 0.041 | [4] 0 | [5] 0.008

FCGR2C (UniProt P31995)
inactive: [1] 0.024 | [2] 0.03 | [3] 0.001 | [4] -0.028 | [5] 0.084

FLNB isoform 8 (UniProt O75369)
inactive: [1] -0.015 | [2] 0.06 | [3] 0.045 | [4] 0.005 | [5] 0
